Experimental data reported in PubChem BioAssay AID488908 (National Center for Advancing Translational Sciences (NCATS), 2010).
This list was built around the results that the source calls inconclusive (neither active nor inactive); the mix of calls is not that of the screen. Potencies of inconclusive entries are doubtful fits and often do not repeat. Active and inactive are the calls of the source. Calls come from the whole dose curve; as a rule, active = well fitted inhibition curve with a large enough effect; inconclusive = small, poorly fitted or top-dose-only effect; inactive = flat fitted curve, though single readings scatter.

Assay: Secondary Assay for lipid storage modulators: Cytotoxcity for probe SAR
Settings: Drosophila S3 cells viability, CellTiter-Glo luminescence, 24 h, with oleic acid added (1 µL, 400 µM); series mostly up to 46.1 µM; activity change, negative = cytotoxicity: at the top concentration
Procedure, shortened: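 Drosophila S3 embryonic cells, 5,000/well, exposed to compound at several concentrations with 400 uM oleic acid stock added, 24 h at 24 degrees C; viability by CellTiter-Glo luminescence.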

Compound | Potency | activity change, negative = cytotoxicity
Cc1nc(SC(C)C(=O)Nc2nc(-c3ccccc3)cs2)n(CC2CCCO2)c1C (configuration not stated) | inconclusive: 7.91 µM [falling, partial curve] | 
O=C(NCCc1ccc(O)c(O)c1)c1cc2sccc2[nH]1 |  | inactive: 0.525%
CCOc1ccc(CCNC(=O)c2ccccn2)cc1OCC |  | inactive: -10.2%
CCOc1ccc(CCNC(=O)c2ccc3ccccc3n2)cc1OCC | inconclusive: 31.6 µM [falling, single point] | 
CCOc1ccc(CCNC(=O)c2cc3sccc3n2CC=C(C)C)cc1OCC | inconclusive: 14.1 µM [falling, partial curve] | 
CCOc1ccc(CCNC(=O)c2cccs2)cc1OCC |  | inactive: -23.7%
CCOc1ccc(CCNC(=O)C2(c3ccccc3)CC2)cc1OCC |  | inactive: -7.24%
Cn1c(=O)n(-c2ccc(C(C)(C)C#N)cc2)c2c3cc(-c4cnc5ccccc5c4)ccc3ncc21 | inconclusive: 1.58 µM [falling, full curve] | 
CCOc1ccc(CCNC(=O)c2cc3sccc3n2C(C)C)cc1OCC | inconclusive: 15.8 µM [falling, partial curve] | 
CCOc1ccc(CCNC(=O)C2COc3ccccc3O2)cc1OCC (configuration not stated) |  | inactive: -20.3%
CCOC(=O)C1CCN(C(=O)CNC(=O)Nc2ccccc2Cl)CC1 |  | inactive: 2.28%
CCOc1ccc(CCNC(C)=O)cc1OCC |  | inactive: -2.17%
O=C(NC1CCCc2c1cnn2-c1ccc(F)cc1F)c1cccc(Cn2cccn2)c1 (configuration not stated) | inconclusive: 8.88 µM [falling, partial curve] | 
COc1ccc(-c2cnc(SCC(=O)Nc3nccs3)n2Cc2ccccc2)cc1 | inconclusive: 28.1 µM [falling, partial curve] | 
O=C(NC1CCCc2c1cnn2-c1ccccc1F)c1ccc2ncccc2c1 (configuration not stated) | active: 2.23 µM | 
CCn1c(C(=O)NCc2ccc(OC)c(OC)c2)cc2sccc21 | inconclusive: 25 µM [falling, single point] | 
COCCn1c(-c2ccc(C)cc2)cnc1SCC(=O)Nc1nc(C)cs1 | inconclusive: 17.7 µM [falling, partial curve] | 
CC1(C)CCC(c2ccc(Cl)cc2)=C(CN2CCN(c3ccc(C(=O)NS(=O)(=O)c4ccc(N[C@H](CCN5CCOCC5)CSc5ccccc5)c(S(=O)(=O)C(F)(F)F)c4)cc3)CC2)C1 | inconclusive: 12.5 µM [falling, partial curve] | 
CCn1c(C(=O)NCCc2ccc(OC)cc2)cc2sccc21 | inconclusive: 15.8 µM [falling, partial curve] | 
Cc1cc(NC(=O)Nc2ccc(N(C)C)cc2)c2cc(F)cc(F)c2n1 | active: 12.5 µM | 
CCOc1ccc(CCNC(=O)c2cnon2)cc1OCC |  | inactive: 2.21%
CCOc1ccc(CCNC(=O)c2cccc(C(=O)c3ccccc3)c2)cc1OCC |  | inactive: -21.3%

Quoted from the listing:
For Potency, `CCOc1ccc(CCNC(=O)c2cc3sccc3n2C(C)C)cc1OCC` is entered as inconclusive: 15.8 µM [falling, partial curve]
For Potency, `Cc1nc(SC(C)C(=O)Nc2nc(-c3ccccc3)cs2)n(CC2CCCO2)c1C` (configuration not stated) is entered as inconclusive: 7.91 µM [falling, partial curve]
